Data source: PubChem BioAssay AID1053208 (Peter MacCallum Cancer Centre, 2014)

- Screen: 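Genes whose silencing cuts survival of bone tumour cells only with doxorubicin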 (primary screen)
- Cell system: mouse osteosarcoma cells, early-passage culture from an engineered mouse model of fibroblastic bone tumour
- Reagents: siRNA pool against mouse genes, 40 nM
- Timing: about 120 h (48 h before drug, then 72 h with drug)
- Challenge: doxorubicin 100 nM for 72 h, roughly 30-40% inhibitory dose
- Measured: 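Luminescent ATP signal taken as viability with or without 100 nM doxorubicin for 72 h; mean of two wells set against non-targeting siRNA and turned into robust z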
- Reading the numbers: viability z-score with doxorubicin and doxorubicin viability vs non-targeting: higher = more viable cells under doxorubicin; viability z-score without drug: higher = more viable cells with knock-down alone; z-score of drug to no-drug ratio: higher = less drug sensitisation by knock-down
- Hit rule: 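a pool counts as active when its viability z-score with doxorubicin is -2 or below and its z-score without drug lies between -2 and 2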
Here is one part, drawn at random, of about 17,000 deposited reagents. 788 of all reagents (4.7%) count as active. 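Calls rest on z-score classes alone; an extra cut-off of viability at most 70% of control was not applied to them.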 Entries without a mark were called inactive. Reagent sequences are not shown.

no.	Target gene	PubChem SID	combined z-score class	viability z-score with doxorubicin	viability z-score without drug	z-score of drug to no-drug ratio	doxorubicin viability vs non-targeting
1	Rgs1	SID152300126	no change with or without drug	0.22	1.52	-0.67	0.96
2	Gsdme	SID152328049	no change with or without drug	-0.56	-0.51	-0.11	0.89
3	Efhd2	SID152279293	no change with or without drug	-1.35	0	-1.35	0.82
4	Cxcr6	SID152325768	no change with or without drug	0.34	-0.51	0.79	0.97
5	Vmn2r-ps105	SID152272983	no change with or without drug	-0.22	-0.51	0.22	0.92
6	Serpina3m	SID152310348	no change with or without drug	-1.01	-0.51	-0.67	0.85
7	D330005C11Rik	SID152317863	no change with or without drug	-0.67	0.17	-0.67	0.88
8	1700010D01Rik	SID152323163	no change with or without drug	-0.45	1.18	-1.12	0.9
9	Mb	SID152280691	no change with or without drug	-1.12	-0.84	-0.56	0.84
10	Or1l4	SID152294379	no change with or without drug	-0.56	-0.51	-0.11	0.89
11	Efhd1	SID152279107	no change with or without drug	-1.57	-0.84	-1.01	0.8
12	6430548M08Rik	SID152322680	no change with or without drug	1.24	1.52	0.34	1.05
13	Tsr2	SID152312600	no change with or without drug	-0.11	0.84	-0.56	0.93
14	Btbd6	SID152302398	no change with or without drug	1.91	-0.51	2.59	1.11
15	Nrbp2	SID152321414	no change with or without drug	0.22	-1.52	1.57	0.96
16	E2f7	SID152300408	no change with or without drug	-0.67	-0.17	-0.45	0.88
17	Rnpep	SID152306055	no change with or without drug	-1.12	-1.18	-0.34	0.84
18	Or8k25	SID152282655	low cell count with doxorubicin only (active)	-3.37	-0.51	-3.15	0.64
19	Or8k25	SID152282934	no change with or without drug	-1.12	-1.85	0.22	0.84
20	Gpnmb	SID152268045	no change with or without drug	0.22	0	0.34	0.96
21	Serpina1b	SID152297719	no change with or without drug	-0.79	1.18	-1.46	0.87
22	Slc35d1	SID152294083	no change with or without drug	-1.12	-1.52	0	0.84
23	Pklr	SID152333743	no change with or without drug	-0.67	1.18	-1.35	0.88
24	Tas2r136	SID152277728	no change with or without drug	1.35	0.51	1.12	1.06
25	Peg3	SID152331481	no change with or without drug	-1.35	-1.18	-0.56	0.82
26	6530405K19	SID152302852	no change with or without drug	-0.34	0.51	-0.56	0.91
27	Pde2a	SID152295632	no change with or without drug	0.22	-0.17	0.45	0.96
28	Or4c124	SID152313200	high cell count without drug only	1.8	2.02	0.56	1.1
29	Camk1	SID152304350	no change with or without drug	-0.67	0.17	-0.67	0.88
30	Sult1b1	SID152262729	no change with or without drug	1.35	-0.34	1.8	1.06
31	Il18	SID152337166	low cell count without drug only	-0.67	-2.19	1.01	0.88
32	H2-Ea	SID152267726	no change with or without drug	0.67	-0.51	1.24	1
33	Ccr2	SID152262960	no change with or without drug	0.11	-1.18	1.12	0.95
34	Arhgap6	SID152328363	no change with or without drug	-1.35	-0.17	-1.24	0.82
35	Gtpbp4	SID152289803	low cell count without drug only	-0.9	-2.19	0.79	0.86
36	Map3k20	SID152283841	no change with or without drug	1.35	0.34	1.24	1.06
37	Rhou	SID152304071	no change with or without drug	-0.22	0.84	-0.67	0.92
38	Myot	SID152337083	high cell count without drug only	1.35	2.36	-0.11	1.06
39	Optc	SID152330403	high cell count without drug only	0.79	2.19	-0.45	1.01
40	Or10ag2	SID152336714	no change with or without drug	-0.34	1.18	-1.01	0.91
41	Atp9b	SID152342858	no change with or without drug	0	-0.84	0.67	0.94
42	Or5p54	SID152319155	no change with or without drug	-0.11	0.17	-0.11	0.93
43	Or2y1g	SID152263609	low cell count without drug only	-1.8	-2.19	-0.34	0.78
44	Gpr27	SID152275772	no change with or without drug	-0.67	-1.18	0.22	0.88
45	Arl4c	SID152275717	no change with or without drug	-0.22	-0.67	0.34	0.92
46	Treml6	SID152315435	no change with or without drug	-1.8	-0.51	-1.46	0.78
47	Gtpbp8	SID152281509	no change with or without drug	-0.22	-0.51	0.22	0.92
48	Rgs13	SID152288065	low cell count with doxorubicin only (active)	-2.47	0	-2.47	0.72
49	Hemgn	SID152284373	no change with or without drug	0.56	1.18	-0.11	0.99
50	Dmac1	SID152338264	no change with or without drug	1.35	-1.18	2.47	1.06

Reformatted: results already given.
{"Target gene": "Pklr", "PubChem SID": "SID152333743", "combined z-score class": "no change with or without drug", "viability z-score with doxorubicin": -0.67, "viability z-score without drug": 1.18, "z-score of drug to no-drug ratio": -1.35, "doxorubicin viability vs non-targeting": 0.88}
{"Target gene": "Tas2r136", "PubChem SID": "SID152277728", "combined z-score class": "no change with or without drug", "viability z-score with doxorubicin": 1.35, "viability z-score without drug": 0.51, "z-score of drug to no-drug ratio": 1.12, "doxorubicin viability vs non-targeting": 1.06}
{"Target gene": "Peg3", "PubChem SID": "SID152331481", "combined z-score class": "no change with or without drug", "viability z-score with doxorubicin": -1.35, "viability z-score without drug": -1.18, "z-score of drug to no-drug ratio": -0.56, "doxorubicin viability vs non-targeting": 0.82}
{"Target gene": "6530405K19", "PubChem SID": "SID152302852", "combined z-score class": "no change with or without drug", "viability z-score with doxorubicin": -0.34, "viability z-score without drug": 0.51, "z-score of drug to no-drug ratio": -0.56, "doxorubicin viability vs non-targeting": 0.91}
{"Target gene": "Pde2a", "PubChem SID": "SID152295632", "combined z-score class": "no change with or without drug", "viability z-score with doxorubicin": 0.22, "viability z-score without drug": -0.17, "z-score of drug to no-drug ratio": 0.45, "doxorubicin viability vs non-targeting": 0.96}
{"Target gene": "Or4c124", "PubChem SID": "SID152313200", "combined z-score class": "high cell count without drug only", "viability z-score with doxorubicin": 1.8, "viability z-score without drug": 2.02, "z-score of drug to no-drug ratio": 0.56, "doxorubicin viability vs non-targeting": 1.1}
